# Source: article doi:10.1101/2020.03.23.003509
# Amino acid sequences for entries named in this document (tags omitted).
# UniProt P62258: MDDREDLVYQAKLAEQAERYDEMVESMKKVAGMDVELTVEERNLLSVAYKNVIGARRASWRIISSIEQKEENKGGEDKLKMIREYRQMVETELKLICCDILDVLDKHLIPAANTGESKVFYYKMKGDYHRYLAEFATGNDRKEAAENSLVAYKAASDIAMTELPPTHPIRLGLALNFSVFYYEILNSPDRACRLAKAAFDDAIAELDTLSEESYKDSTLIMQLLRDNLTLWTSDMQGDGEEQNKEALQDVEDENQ
# Where two headings read alike, the source gives them in different places. Results are given in words; binding and its absence hold for the method and conditions named. In cells and extracts the contact can be indirect. Some entries that bind do so weakly or less than the wild type. For some assays here: Where a sequence is shown, tags or fusion partners need not be part of it.
# T1: GST-Kaiso (full-length Kaiso, ZBTB33, from pEBG-GST-Kaiso) (human) (UniProt Q86T24)
# T1 sequence: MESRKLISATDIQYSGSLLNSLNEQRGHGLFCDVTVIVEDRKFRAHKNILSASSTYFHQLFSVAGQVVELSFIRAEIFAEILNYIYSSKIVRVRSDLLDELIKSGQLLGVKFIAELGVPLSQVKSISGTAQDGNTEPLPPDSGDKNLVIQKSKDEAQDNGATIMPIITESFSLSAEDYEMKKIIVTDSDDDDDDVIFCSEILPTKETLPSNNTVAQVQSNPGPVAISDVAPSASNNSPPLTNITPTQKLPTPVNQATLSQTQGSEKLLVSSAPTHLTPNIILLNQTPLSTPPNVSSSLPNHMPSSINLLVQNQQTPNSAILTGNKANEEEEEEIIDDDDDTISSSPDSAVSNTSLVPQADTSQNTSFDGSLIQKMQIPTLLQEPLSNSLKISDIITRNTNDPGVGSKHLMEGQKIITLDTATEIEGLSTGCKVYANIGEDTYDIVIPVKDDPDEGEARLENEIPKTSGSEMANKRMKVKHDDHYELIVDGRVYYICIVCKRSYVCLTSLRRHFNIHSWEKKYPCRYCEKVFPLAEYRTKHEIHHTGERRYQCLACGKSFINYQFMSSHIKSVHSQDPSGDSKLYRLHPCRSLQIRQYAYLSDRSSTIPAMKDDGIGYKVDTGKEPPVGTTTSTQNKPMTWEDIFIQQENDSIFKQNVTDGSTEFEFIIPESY
# T2: endogenous Kaiso (ZBTB33) (human (endogenous in MGC803)) (UniProt Q86T24)
# T2 sequence: T1 sequence
# B1: endogenous P120ctn (CTNND1) (protein, UniProt O60716 1-968)
# chain: MDDSEVESTASILASVKEQEAQFEKLTRALEEERRHVSAQLERVRVSPQDANPLMANGTLTRRHQNGRFVGDADLERQKFSDLKLNGPQDHSHLLYSTIPRMQEPGQIVETYTEEDPEGAMSVVSVETSDDGTTRRTETTVKKVVKTVTTRTVQPVAMGPDGLPVDASSVSNNYIQTLGRDFRKNGNGGPGPYVGQAGTATLPRNFHYPPDGYSRHYEDGYPGGSDNYGSLSRVTRIEERYRPSMEGYRAPSRQDVYGPQPQVRVGGSSVDLHRFHPEPYGLEDDQRSMGYDDLDYGMMSDYGTARRTGTPSDPRRRLRSYEDMIGEEVPSDQYYWAPLAQHERGSLASLDSLRKGGPPPPNWRQPELPEVIAMLGFRLDAVKSNAAAYLQHLCYRNDKVKTDVRKLKGIPVLVGLLDHPKKEVHLGACGALKNISFGRDQDNKIAIKNCDGVPALVRLLRKARDMDLTEVITGTLWNLSSHDSIKMEIVDHALHALTDEVIIPHSGWEREPNEDCKPRHIEWESVLTNTAGCLRNVSSERSEARRKLRECDGLVDALIFIVQAEIGQKDSDSKLVENCVCLLRNLSYQVHREIPQAERYQEAAPNVANNTGPHAASCFGAKKGKDEWFSRGKKPIEDPANDTVDFPKRTSPARGYELLFQPEVVRIYISLLKESKTPAILEASAGAIQNLCAGRWTYGRYIRSALRQEKALSAIADLLTNEHERVVKAASGALRNLAVDARNKELIGKHAIPNLVKNLPGGQQNSSWNFSEDTVISILNTINEVIAENLEAAKKLRETQGIEKLVLINKSGNRSEKEVRAAALVLQTIWGYKELRKPLEKEGWKKSDFQVNLNNASRSQSSHSYDDSTLPLIDRNQKSDKKPDREEIQMSNMGSNTKSLDNNYSTPNERGDHNRTLDRSGDLGDMEPLKGTTPLMQDEGQESLEEELDVLVLDDEGGQVSYPSMQKI
# B2: Flag-14-3-3γ (protein, UniProt P61981 1-247)
# chain: MVDREQLVQKARLAEQAERYDDMAAAMKNVTELNEPLSNEERNLLSVAYKNVVGARRSSWRVISSIEQKTSADGNEKKIEMVRAYREKIEKELEAVCQDVLSLLDNYLIKNCSETQYESKVFYLKMKGDYYRYLAEVATGEKRATVVESSEKAYSEAHEISKEHMQPTHPIRLGLALNYSVFYYEIQNAPEQACHLAKTAFDDAIAELDTLNEDSYKDSTLIMQLLRDNLTLWTSDQQDDDGGEGNN
# B3: Flag-14-3-3η (protein, UniProt Q04917 1-246)
# chain: MGDREQLLQRARLAEQAERYDDMASAMKAVTELNEPLSNEDRNLLSVAYKNVVGARRSSWRVISSIEQKTMADGNEKKLEKVKAYREKIEKELETVCNDVLSLLDKFLIKNCNDFQYESKVFYLKMKGDYYRYLAEVASGEKKNSVVEASEAAYKEAFEISKEQMQPTHPIRLGLALNFSVFYYEIQNAPEQACLLAKQAFDDAIAELDTLNEDSYKDSTLIMQLLRDNLTLWTSDQQDEEAGEGN
# Experiments:
# [1] = molecular target: T1, GST-Kaiso (full-length Kaiso, ZBTB33, from pEBG-GST-Kaiso) (human); experiment: pull-down
# [2] = molecular target: T2, endogenous Kaiso (ZBTB33) (human (endogenous in MGC803)); experiment: co-IP
# [3] = molecular target: T2, endogenous Kaiso (ZBTB33) (human (endogenous in MGC803)); experiment: co-IP; remark: listed apart in the source
Molecule,binding [1],binding [2],binding [3]
Flag-14-3-3ε (from UniProt P62258 1-255),binds,,
B1,,binds,binds
B2,binds,,
B3,binds weakly,,
